According to PMC12375501:
Results are given in words; binding and its absence hold for the method and conditions named. In cells and extracts the contact can be indirect. Some binding calls cover weakened binding; strength is not graded here. Tags and fused reporters may be left off the sequences shown.

Biological target: T1, MYC-tagged RNASEH2B (human) (UniProt Q5TBB1)
T1 sequence: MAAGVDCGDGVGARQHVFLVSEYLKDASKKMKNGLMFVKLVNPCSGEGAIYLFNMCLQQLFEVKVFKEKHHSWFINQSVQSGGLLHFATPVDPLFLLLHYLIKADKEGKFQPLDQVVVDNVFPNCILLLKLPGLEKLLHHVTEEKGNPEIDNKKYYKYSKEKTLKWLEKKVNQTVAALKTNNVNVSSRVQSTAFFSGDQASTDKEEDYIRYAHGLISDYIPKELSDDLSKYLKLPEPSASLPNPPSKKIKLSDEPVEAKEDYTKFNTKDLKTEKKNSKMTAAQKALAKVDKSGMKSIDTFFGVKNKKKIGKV
Test: co-IP; ChromoTek Myc-trap magnetic agarose (anti-Myc-tag nanobody) precipitates ectopic MYC-RH2B 48 h after doxycycline induction; 1 mg protein per condition, 1 h; buffers with DNase I, 2.5 mM MgCl2, protease and phosphatase inhibitors; immunoblot for RH2A, RH2B, RH2C

binding: binds
B1: RNASEH2C (endogenous) (protein, UniProt Q8TDP1 1-164)
chain: MESGDEAAIERHRVHLRSATLRDAVPATLHLLPCEVAVDGPAPVGRFFTPAIRQGPEGLEVSFRGRCLRGEEVAVPPGLVGYVMVTEEKKVSMGKPDPLRDSGTDDQEEEPLERDFDRFIGATANFSRFTLWGLETIPGPDAKVRGALTWPSLAAAIHAQVPED
